This note sets out measurements from PubChem BioAssay AID256 (DTP/NCI, 2004).

In the experiment the test system is CD2F1 mice, L1210 leukemia ip, survival T/C. Briefly: NCI In Vivo Anticancer Drug Screen. Data for tumor model L1210 Leukemia (intraperitoneal) in CD2F1 (CDF1) mice. The following applies: higher T/C = longer survival. The method, boiled down:
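Vehicle-treated tumor-bearing mice served as controls (C) for compound-treated mice (T). Reported figure is T divided by C.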

Where [1] appears, read: T/C endpoint: mean survival time, dose: 100.0 mg/kg/injection, schedule: Q04DX003 (ip), vehicle: saline.
Setting [2] is: T/C endpoint: mean survival time, dose: 200.0 mg/kg/injection, schedule: Q04DX003 (ip), vehicle: saline.
The mark [3] stands for this setting: T/C endpoint: mean survival time, dose: 400.0 mg/kg/injection, schedule: Q04DX003 (ip), vehicle: saline.
Setting [4] is: T/C endpoint: mean survival time, dose: 400.0 mg/kg/injection, schedule: Q01DX009 (ip), vehicle: saline with Tween-80.
[5] abbreviates: T/C endpoint: mean survival time, dose: 400.0 mg/kg/injection, schedule: Q04DX003 (ip), vehicle: saline with Tween-80.
[6] abbreviates: T/C endpoint: mean survival time, dose: 200.0 mg/kg/injection, schedule: Q04DX003 (ip), vehicle: saline with Tween-80.
[7] abbreviates: T/C endpoint: mean survival time, dose: 100.0 mg/kg/injection, schedule: Q04DX002 (ip), vehicle: saline with Tween-80.
Where [8] appears, read: T/C endpoint: mean survival time, dose: 400.0 mg/kg/injection, schedule: Q04DX002 (ip), vehicle: saline with Tween-80.
Where [9] appears, read: T/C endpoint: mean survival time, dose: 300.0 mg/kg/injection, schedule: Q01DX001 (ip), vehicle: other.
The mark [10] stands for this setting: T/C endpoint: mean survival time, dose: 25.0 mg/kg/injection, schedule: Q01DX009 (ip), vehicle: saline.
Where [11] appears, read: T/C endpoint: mean survival time, dose: 50.0 mg/kg/injection, schedule: Q01DX009 (ip), vehicle: saline.
Setting [12] is: T/C endpoint: mean survival time, dose: 100.0 mg/kg/injection, schedule: Q01DX009 (ip), vehicle: saline.
The mark [13] stands for this setting: T/C endpoint: mean survival time, dose: 200.0 mg/kg/injection, schedule: Q01DX009 (ip), vehicle: saline.
[14] abbreviates: T/C endpoint: mean survival time, dose: 0.31 mg/kg/injection, schedule: Q01DX009 (ip), vehicle: lactic acid.

The list is a part of this screen's results and no random one: it is rich in T/C values a quarter to a half above the control, in often repeated tests (any T/C) and in doses without a T/C. Further doses and runs are listed elsewhere. T/C is the treated group as % of the vehicle group. Some doses have a count of surviving animals in place of a T/C: the source files T/C as zero there, which appears to mark a toxic dose or a test without result, not a measured value. Some survivor counts are full or nearly so, which does not show that the dose was tolerated: the source hardly ever lists a survival T/C far under the control, and the zero likely stands for such cases as well. Counts of survivors are from the toxicity check (mostly the fifth day) where no day follows; animals may have died later. Schedules are NCI's codes, read here as Q, the interval in days (D) or hours (H), X, the number of doses. Brackets with × stand for listed records that agree. Some doses were run more than once; the results are listed from low to high. For survival time, this PubChem deposit counts one and a half times the control or more as active, and values a quarter to a half above the control carry no call in these data; other NCI protocols may use other cut-offs. Some T/C values are followed by the survivors on the day toxicity was checked, most often the fifth; without a count, all were alive then. Some schedule codes hold Z or #, which are not explained here.

In the case of `CCOc1ccc(C(=O)OC(CN(CC)CC)c2ccccc2)cc1` (stereo not given), the survivor count under setting [1] was 1 of 3, the survivor count under setting [2] is listed as 0 of 3 and the survivor count under setting [3] was 0 of 3.
Consider `C1CCC(N2CCOCC2)CC1`, for which the survivor count (T/C endpoint: mean survival time, dose: 100.0 mg/kg/injection, schedule: Q04DX002 (ip), vehicle: saline) is on record as 0 of 3.
Consider `COC(=O)c1cc(C)ccc1O`, for which the survivor count under setting [4] was 0 of 6.
With `CCCCC(O)CCCCCCCCCC(=O)O` (stereo not given), under setting [5], the survivor count is recorded as 6 of 6.
For the molecule `CCOC(CSCC#N)OCC`, the survivor count was 3 of 6 (T/C endpoint: mean survival time, dose: 100.0 mg/kg/injection, schedule: Q04DX003 (ip), vehicle: saline with Tween-80); 0 of 6 under setting [6]; 0 of 6 under setting [5].
Consider `CS(=O)(=O)Nc1ccc(Nc2c3ccccc3nc3cc(Cl)ccc23)cc1`, for which the T/C was 133 % of control [5 of 6 alive] (T/C endpoint: mean survival time, dose: 100.0 mg/kg/injection, schedule: Q01DX009 (ip), vehicle: saline with Tween-80) and 134 % of control [5 of 6 alive] (T/C endpoint: mean survival time, dose: 300.0 mg/kg/injection, schedule: Q04DX003 (ip), vehicle: saline with Tween-80). The survivor count (T/C endpoint: mean survival time, dose: 200.0 mg/kg/injection, schedule: Q01DX009 (ip), vehicle: saline with Tween-80) is recorded as 6 of 6; the survivor count under setting [6] is on record as 3 of 6; the survivor count under setting [3] was 6 of 6.
Consider `O=C(O)COc1ccc(Cl)cc1Cl` (tested in a mixture with another compound), for which the survivor count is, setting by setting: under setting [7], 3 of 3; under setting [8], 0 of 3.
`CN(C)CC1CCCCCC(CN(C)C)C1=O` (stereo not given): the survivor count under setting [9] is on record as 2 of 6.
As to `CC(=O)OCC1OC(n2ncc(=O)[nH]c2=O)C(OC(C)=O)C1OC(C)=O` (stereo not given), the T/C is, setting by setting: (T/C endpoint: mean survival time, dose: 12.5 mg/kg/injection, schedule: Q01DX009 (ip), vehicle: saline) 133 % of control [5 of 6 alive]; under setting [10], 133 % of control; under setting [11], 133 % of control [5 of 6 alive]; under setting [12], 138 % of control; (T/C endpoint: mean survival time, dose: 100.0 mg/kg/injection, schedule: Q03HX024 (ip), vehicle: saline) 134 % of control; under setting [13], 135 % of control. Further, the T/C was 108, 109, 111, 112, 113 (2×), 114, 115 (2×), 120, 125 % of control (T/C endpoint: median survival time, dose: 50.0 mg/kg/injection, schedule: Q01DX005 (ip), vehicle: saline with Tween-80); 111, 120, 121, 134, 135, 138, 140, 144, 150, 156, 166 % of control (T/C endpoint: median survival time, dose: 50.0 mg/kg/injection, schedule: Q01DX009 (ip), vehicle: saline with Tween-80); 110, 111, 112, 112 [4 of 6 alive], 113, 114, 115, 117, 119, 120, 121 % of control (T/C endpoint: median survival time, dose: 100.0 mg/kg/injection, schedule: Q01DX005 (ip), vehicle: saline with Tween-80); 115, 127, 128, 134, 137, 141, 142 [5 of 6 alive], 150, 152, 156, 162 % of control (T/C endpoint: median survival time, dose: 100.0 mg/kg/injection, schedule: Q01DX009 (ip), vehicle: saline with Tween-80); 112, 114, 115, 116, 119 (2×), 121 (2×), 122, 123, 132 % of control (T/C endpoint: median survival time, dose: 200.0 mg/kg/injection, schedule: Q01DX005 (ip), vehicle: saline with Tween-80); 116, 127, 131, 132, 134, 134 [5 of 6 alive], 136, 141, 142, 143, 158 % of control (T/C endpoint: median survival time, dose: 200.0 mg/kg/injection, schedule: Q01DX009 (ip), vehicle: saline with Tween-80). Also, the T/C runs as follows: (T/C endpoint: median survival time, dose: 400.0 mg/kg/injection, schedule: Q01DX005 (ip), vehicle: saline with Tween-80) 112, 114 (2×), 117, 119, 121 (2×), 123, 128, 132, 138 % of control; (T/C endpoint: median survival time, dose: 400.0 mg/kg/injection, schedule: Q01DX009 (ip), vehicle: saline with Tween-80) 124, 126, 129, 135, 141, 142 (2×), 144 [5 of 6 alive], 150, 152, 158 % of control; (T/C endpoint: median survival time, dose: 800.0 mg/kg/injection, schedule: Q01DX005 (ip), vehicle: saline with Tween-80) 114, 117 (2×), 119 [5 of 6 alive], 121, 122, 124, 125, 127 [5 of 6 alive], 129 [5 of 6 alive], 130 % of control; (T/C endpoint: median survival time, dose: 800.0 mg/kg/injection, schedule: Q01DX009 (ip), vehicle: saline with Tween-80) 120, 125, 126, 128, 136, 137, 141, 144, 150, 155, 161 % of control. For the same molecule, the survivor count (T/C endpoint: mean survival time, dose: 200.0 mg/kg/injection, schedule: Q03HX024 (ip), vehicle: saline) is 3 of 6.
For the molecule `CC(CC(=O)Nc1ccc(S(=O)(=O)F)cc1)c1ccc(N2C(N)=NC(N)=NC2(C)C)cc1` (stereo not given), the T/C (T/C endpoint: mean survival time, dose: 200.0 mg/kg/injection, schedule: Q#A X018 (ip), vehicle: saline) was 143 % of control.
With `CCCCCCCCCCCCCCCC1CCCC(C)N1` (stereo not given), the survivor count is, setting by setting: under setting [7], 0 of 3; (T/C endpoint: mean survival time, dose: 200.0 mg/kg/injection, schedule: Q04DX002 (ip), vehicle: saline with Tween-80) 0 of 3; under setting [8], 0 of 3 and 1 of 3.
`COc1ccc2c(NCCCCCCNc3c4ccccc4nc4cc(OC)ccc34)c3ccccc3nc2c1`: the survivor count runs as follows: (T/C endpoint: mean survival time, dose: 0.07 mg/kg/injection, schedule: Q01DX009 (ip), vehicle: lactic acid) 3 of 6; (T/C endpoint: mean survival time, dose: 0.15 mg/kg/injection, schedule: Q01DX009 (ip), vehicle: lactic acid) 2 of 6; under setting [14], 6 of 6; (T/C endpoint: mean survival time, dose: 0.62 mg/kg/injection, schedule: Q01DX009 (ip), vehicle: lactic acid) 2 of 6; (T/C endpoint: mean survival time, dose: 1.25 mg/kg/injection, schedule: Q01DX009 (ip), vehicle: lactic acid) 0 of 6; (T/C endpoint: mean survival time, dose: 2.5 mg/kg/injection, schedule: Q01DX009 (ip), vehicle: lactic acid) 0 of 6. Moreover, the T/C runs as follows: under setting [14], 132 % of control; (T/C endpoint: mean survival time, dose: 0.63 mg/kg/injection, schedule: Q01DX009 (ip), vehicle: lactic acid) 127 % of control [5 of 6 alive].
On to `CC1(C)/C(=N/Nc2ccc([N+](=O)[O-])cc2[N+](=O)[O-])C=Cc2ccccc21`, for which the survivor count (T/C endpoint: mean survival time, dose: 50.0 mg/kg/injection, schedule: Q01DX009 (ip), vehicle: other) is 6 of 6.
On to `CCOC(=O)Nc1cc2c(c(N)n1)N=C(c1ccc(Cl)cc1)CN2`, for which, under “T/C endpoint: mean survival time, dose: 12.5 mg/kg/injection, schedule: Q01DX009 (ip), vehicle: Klucel (hydroxypropylcellulose) (HPC)”, the T/C was 125 % of control. For the same molecule, the survivor count (T/C endpoint: mean survival time, dose: 50.0 mg/kg/injection, schedule: Q01DX009 (ip), vehicle: Klucel (hydroxypropylcellulose) (HPC)) is 4 of 5.
With `CCOc1ccc(C(/C(Cl)=N/O)C(Cl)(Cl)Cl)cc1` (stereo not given), the survivor count (T/C endpoint: mean survival time, dose: 75.0 mg/kg/injection, schedule: Q01DX009 (ip), vehicle: saline with Tween-80) is 6 of 6; the survivor count (T/C endpoint: mean survival time, dose: 115.0 mg/kg/injection, schedule: Q01DX009 (ip), vehicle: saline with Tween-80) was 0 of 6; the survivor count (T/C endpoint: mean survival time, dose: 170.0 mg/kg/injection, schedule: Q01DX009 (ip), vehicle: saline with Tween-80) is listed as 0 of 6.
As to `CC(=O)Nc1cccc2ccccc12`, the survivor count under setting [4] is on record as 5 of 6.
As to `[Cl][Pt]([Cl])([Cl])[Cl]`, the survivor count was 5 of 6 under setting [10]; 0 of 6, 2 of 6, 3 of 6 under setting [11]; 0 of 6 (T/C endpoint: mean survival time, dose: 50.0 mg/kg/injection, schedule: Q01DX009 (ip), vehicle: suspension in saline); 0 of 6 (2×) under setting [12]; 0 of 6 (2×) under setting [1]; 0 of 6 (2×) under setting [13]. In addition, the survivor count by setting is: under setting [2], 0 of 6 (2×); (T/C endpoint: mean survival time, dose: 400.0 mg/kg/injection, schedule: Q01DX009 (ip), vehicle: saline) 0 of 6 (2×); under setting [3], 0 of 6 (2×).
On to `CC1CN1C(=O)OCCOC(=O)N1CC1C` (stereo not given), for which, for the setting “T/C endpoint: mean survival time, dose: 675.0 mg/kg/injection, schedule: Q01DX Z (ip), vehicle: saline”, the T/C is 149 % of control.
Turning to `CC(=O)OC1CC2CCC1(C)C2(C)C` (stereo not given), under setting [5], the survivor count is given as 6 of 6.
Regarding `CC(=O)Oc1c(C)ncc(C=O)c1C`, under setting [9], the survivor count is given as 0 of 6.
